Record: PubChem BioAssay AID1224830 (NIAID, 2016)

Assay: 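Host factors that control LPS-induced TNF expression in human macrophages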 (primary screen)
System: human THP-1 monocytic leukaemia cells, TNF dual-luciferase reporter clone, PMA-differentiated to macrophage-like cells
Knock-down reagent: siRNA pool against human genes, 50 nM
Time to read-out: LPS for 4 h, given about 3 days after siRNA transfection
Challenge: bacterial LPS (TLR4 ligand), 10 ng/ml
Detection: 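TNF firefly reporter luminescence divided by renilla, normalised to the plate median, then turned into a robust z-score for each replicate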
Scale: TNF reporter robust z-score: higher = stronger TNF reporter response to LPS
Hit rule: 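a well is active when its z-score exceeds 2.8 or falls below -1.5; control wells carry no call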
Here is one part, drawn at random, of about 18,000 deposited reagents. About 2,900 of them (16%) were called active. 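Calls are made per well; low scores hint the gene aids the LPS response, high scores that it dampens it.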 Repeated entries: four replicate wells of each siRNA pool. Reagent sequences are not shown.

gene symbol | TNF reporter robust z-score | call
ZFHX2 (GeneID 85446) | -0.48 | inactive
ZFHX2 (GeneID 85446) | -0.32 | inactive
ZFHX2 (GeneID 85446) | -0.86 | inactive
ZFHX2 (GeneID 85446) | -0.06 | inactive
PDCD1LG2 (GeneID 80380) | -0.12 | inactive
PDCD1LG2 (GeneID 80380) | 1.5 | inactive
PDCD1LG2 (GeneID 80380) | 0.74 | inactive
PDCD1LG2 (GeneID 80380) | 1.44 | inactive
ATRAID (GeneID 51374) | -0.22 | inactive
ATRAID (GeneID 51374) | 0.2 | inactive
ATRAID (GeneID 51374) | 0.26 | inactive
ATRAID (GeneID 51374) | 1.4 | inactive
RFX7 (GeneID 64864) | 0.89 | inactive
RFX7 (GeneID 64864) | -0.58 | inactive
RFX7 (GeneID 64864) | 0.11 | inactive
RFX7 (GeneID 64864) | -0.11 | inactive
ANKRD17 (GeneID 26057) | 0 | inactive
ANKRD17 (GeneID 26057) | 0.87 | inactive
ANKRD17 (GeneID 26057) | 1.36 | inactive
ANKRD17 (GeneID 26057) | 1.57 | inactive
SMPD3 (GeneID 55512) | -0.03 | inactive
SMPD3 (GeneID 55512) | 0.43 | inactive
SMPD3 (GeneID 55512) | 0.41 | inactive
SMPD3 (GeneID 55512) | 1.01 | inactive
CALM3 (GeneID 808) | -1.32 | inactive
CALM3 (GeneID 808) | -0.97 | inactive
CALM3 (GeneID 808) | -0.25 | inactive
CALM3 (GeneID 808) | 0.84 | inactive
ZNF276 (GeneID 92822) | 0.04 | inactive
ZNF276 (GeneID 92822) | 1.25 | inactive
ZNF276 (GeneID 92822) | 0.78 | inactive
ZNF276 (GeneID 92822) | 0.45 | inactive
DKK2 (GeneID 27123) | 1.06 | inactive
DKK2 (GeneID 27123) | 0.27 | inactive
DKK2 (GeneID 27123) | 0.85 | inactive
DKK2 (GeneID 27123) | 0.19 | inactive
FAR1 (GeneID 84188) | -0.92 | inactive
FAR1 (GeneID 84188) | -0.23 | inactive
FAR1 (GeneID 84188) | -0.74 | inactive
FAR1 (GeneID 84188) | -0.24 | inactive
PARD6A (GeneID 50855) | -1.04 | inactive
PARD6A (GeneID 50855) | -0.51 | inactive
PARD6A (GeneID 50855) | -0.73 | inactive
PARD6A (GeneID 50855) | 0.05 | inactive
GPM6A (GeneID 2823) | -1.03 | inactive
GPM6A (GeneID 2823) | 0.29 | inactive
GPM6A (GeneID 2823) | -0.65 | inactive
GPM6A (GeneID 2823) | -0.62 | inactive
EDRF1 (GeneID 26098) | -0.69 | inactive
EDRF1 (GeneID 26098) | -0.35 | inactive
EDRF1 (GeneID 26098) | 0.76 | inactive
TUBA3E (GeneID 112714) | 0.11 | inactive
TUBA3E (GeneID 112714) | -0.06 | inactive
TUBA3E (GeneID 112714) | -0.77 | inactive
TUBA3E (GeneID 112714) | -0.64 | inactive
GDAP2 (GeneID 54834) | -0.01 | inactive
GDAP2 (GeneID 54834) | -0.66 | inactive
GDAP2 (GeneID 54834) | -0.96 | inactive
GDAP2 (GeneID 54834) | -0.06 | inactive
RGS7 (GeneID 6000) | -1.02 | inactive
RGS7 (GeneID 6000) | -0.15 | inactive
RGS7 (GeneID 6000) | -0.73 | inactive
RGS7 (GeneID 6000) | -0.71 | inactive
SEPTIN5 (GeneID 5413) | -0.38 | inactive
SEPTIN5 (GeneID 5413) | -0.33 | inactive
SEPTIN5 (GeneID 5413) | -1.19 | inactive
SEPTIN5 (GeneID 5413) | -0.64 | inactive
RASSF5 (GeneID 83593) | -0.24 | inactive
RASSF5 (GeneID 83593) | 1.45 | inactive
RASSF5 (GeneID 83593) | 0.82 | inactive
RASSF5 (GeneID 83593) | 0.67 | inactive
BBS2 (GeneID 583) | 0.39 | inactive
BBS2 (GeneID 583) | 1.14 | inactive
BBS2 (GeneID 583) | 0.47 | inactive
BBS2 (GeneID 583) | -0.18 | inactive
GPRASP1 (GeneID 9737) | 1.22 | inactive
GPRASP1 (GeneID 9737) | 1.13 | inactive
GPRASP1 (GeneID 9737) | -0.58 | inactive
GPRASP1 (GeneID 9737) | -0.94 | inactive
LALBA (GeneID 3906) | 1.17 | inactive
LALBA (GeneID 3906) | 1.12 | inactive
LALBA (GeneID 3906) | 0.87 | inactive
LALBA (GeneID 3906) | 1.04 | inactive
IRX2-DT (GeneID 153571) | -0.04 | inactive
IRX2-DT (GeneID 153571) | 0.29 | inactive
IRX2-DT (GeneID 153571) | 2.16 | inactive
IRX2-DT (GeneID 153571) | 3.5 | active
CHD6 (GeneID 84181) | -0.51 | inactive
CHD6 (GeneID 84181) | 1.13 | inactive
CHD6 (GeneID 84181) | 0.76 | inactive
CHD6 (GeneID 84181) | 1.82 | inactive
ANK1 (GeneID 286) | -0.05 | inactive
ANK1 (GeneID 286) | 1.78 | inactive
ANK1 (GeneID 286) | -1.03 | inactive
ANK1 (GeneID 286) | -0.84 | inactive
KRT77 (GeneID 374454) | -0.56 | inactive
KRT77 (GeneID 374454) | -0.05 | inactive
KRT77 (GeneID 374454) | 0.77 | inactive
KRT77 (GeneID 374454) | -0.27 | inactive
SEL1L (GeneID 6400) | 0.83 | inactive
SEL1L (GeneID 6400) | 0.16 | inactive
SEL1L (GeneID 6400) | 1.37 | inactive
SEL1L (GeneID 6400) | -1.37 | inactive
NMRK2 (GeneID 27231) | 2.57 | inactive
NMRK2 (GeneID 27231) | 3.06 | active
NMRK2 (GeneID 27231) | 2.59 | inactive
NMRK2 (GeneID 27231) | 2.01 | inactive
LRIT1 (GeneID 26103) | 1.15 | inactive
LRIT1 (GeneID 26103) | -0.51 | inactive
LRIT1 (GeneID 26103) | -0.47 | inactive
LRIT1 (GeneID 26103) | -0.27 | inactive
